Test results as given in PMC10508983, “Nucleotide-free structures of KIF20A illuminate atypical mechanochemistry in this kinesin-6” (Open Biology, 2023).
No constants are given. Whether binding was seen depends on the method and setting. Binding calls can cover weak binding; strength is not graded here.

By UniProt entry, the sequences of proteins in these tests, tags left out. Where a name states a change or a piece, a line headed by the entry shows the natural chain unless it says otherwise.
UniProt Q2XVP4: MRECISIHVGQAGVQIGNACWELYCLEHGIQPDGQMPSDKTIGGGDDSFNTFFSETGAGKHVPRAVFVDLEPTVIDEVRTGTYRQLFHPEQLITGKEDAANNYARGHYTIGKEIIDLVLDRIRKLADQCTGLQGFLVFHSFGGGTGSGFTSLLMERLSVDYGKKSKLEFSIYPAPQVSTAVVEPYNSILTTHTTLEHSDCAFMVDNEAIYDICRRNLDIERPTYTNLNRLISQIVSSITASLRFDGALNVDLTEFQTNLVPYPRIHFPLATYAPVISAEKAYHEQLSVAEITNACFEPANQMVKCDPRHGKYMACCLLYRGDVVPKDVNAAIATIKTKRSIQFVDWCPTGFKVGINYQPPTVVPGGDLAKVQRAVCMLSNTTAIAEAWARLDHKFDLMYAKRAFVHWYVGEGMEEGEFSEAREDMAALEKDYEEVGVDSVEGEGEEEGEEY

Legend:
Experiment in all cases: cryo-EM structure; 6 µM paclitaxel-stabilised microtubules laid on the grid, then 40 µM KIF20A 1–565 in BRB40 (40 mM PIPES pH 6.8, 1 mM MgCl2, 1 mM EGTA) with 20 µM paclitaxel and apyrase (nucleotide-free), room temperature; two classes (class-1, class-2); both purified
[1] = biological target: α-tubulin (in the porcine brain microtubule of the cryo-EM structure) (porcine) (UniProt Q2XVP4)
[2] = biological target: β-tubulin (in the porcine brain microtubule of the cryo-EM structure) (porcine)
[3] = biological target: microtubules from porcine brain tubulin (cryo-EM preparation) (porcine)

Measured: binding

B1: KIF20A 1–565 (full-length functional motor domain) (domain or fragment, UniProt P97329 1-565)
chain: MSHRILSPPAGLLSDEDVVDSPILESTAADLRSVVRKDLLSDCSVISASLEDKQALLEDTSEKVKVYLRIRPFLTSELDRQEDQGCVCIENTETLVLQAPKDSFALKSNERGVGQATHKFTFSQIFGPEVGQVAFFNLTMKEMVKDVLKGQNWLIYTYGVTNSGKTYTIQGTSKDAGILPQSLALIFNSLQGQLHPTPDLKPLLSNEVIWLDSKQIRQEEMKKLSLLIGGLQEEELSTSVKKRVHTESRIGASNSFDSGVAGLSSTSQFTSSSQLDETSQLWAQPDTVPVSVPADIRFSVWISFFEIYNELLYDLLEPPSHQHKRQTLRLCEDQNGNPYVKDLNWIHVRDVEEAWKLLKVGRKNQSFASTHMNQQSSRSHSIFSIRILHLQGEGDIVPKISELSLCDLAGSERCKHQKSGERLKEAGNINTSLHTLGRCIAALRQNQQNRSKQNLIPFRDSKLTRVFQGFFTGRGRSCMIVNVNPCASTYDETLHAAKFSALASQLVHAPPVHLGIPSLHSFIKKHSPQVGPGLEKEDKADSDLEDSPEDEADVSVYGKEELLQV
binds: [1] | [2] | [3]
